Some of the results follow. Values are raw readings; no control value is given beside them.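 Primary screen: polymyxin B was added at a level permeabilizing Salmonella outer membranes while sparing inner membranes. DMSO wells, both with and without polymyxin B, established maximum growth. Plate-to-plate variation meant each plate was ranked on its own, and the lowest-OD600 compounds were selected as hits.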
System: Salmonella enterica serovar Typhimurium SL1344
Assay: bacterial growth OD600 after 18 h with compound and polymyxin B; higher = more bacterial growth (less inhibition)
Details: 50 µM, Mueller-Hinton broth

Compound	bacterial growth OD600 (polymyxin B 1 µg/mL)	bacterial growth OD600 (polymyxin B 0.75 µg/mL)
CCN(C)c1ccc(C(=O)N2CCCN(c3ncccn3)CC2)cn1	0.867	
CCCN1CCC(N2CCC(N3CCC(C(=O)NCc4cccnc4)CC3)CC2)CC1	1.1	
c1cnc2c(CN3CCc4[nH]nc(-c5ccc6c(c5)OCO6)c4C3)cccc2c1		0.853
Cc1ccc(OCC(=O)Nc2cccc(-c3nc(CNC(=O)Cc4c(C)noc4C)c(C)o3)c2)cc1		0.777
O=C(CCCn1cncn1)NC1CCCc2nc(-c3ccccc3)ncc21 (stereo unspecified)	0.933	
CC(C)CNC(=O)C1CCCN(C2CCN(c3nc4ccccc4o3)CC2)C1 (stereo unspecified)		0.883
COc1cc(C)c(CN2CCC3(CC2)c2ccccc2[C@@H](NC(=O)c2ccco2)[C@@H]3OC)cc1C		0.006
CC(C)c1nc(CNC(=O)c2ccc(N3CCCCCC3)nc2)no1	0.876	
O=C1CN(C(=O)CC2c3ccccc3CCc3ccccc32)CCN1		0.931
CCOC(=O)C1(Cc2cccc(F)c2)CCN(Cc2cnn(CC)c2C)CC1	0.929	
CN(CC(O)c1ccccc1)C(=O)c1cc(Cn2ccc3ccccc32)[nH]n1 (stereo unspecified)	1.02	
C=CCC(O)(CC=C)CNC1CCN(c2cccc(NC(=O)CC3CCCC3)c2)CC1		0.851
COc1cccc(CC2(CO)CCCN(Cc3ccc(SC)cc3)C2)c1 (stereo unspecified)	0.875	
O=C1CCC(CCNCc2cc3c(cc2Cl)OCO3)N1CC(c1ccccn1)N1CCOCC1 (stereo unspecified)		0.856
Cc1ccccc1-c1noc(-c2ccc(NCC3COCCO3)nc2)n1 (stereo unspecified)		0.495
COc1ccccc1-c1cn2c(C(=O)N3CCCCC3c3ccccn3)csc2n1 (stereo unspecified)		0.003

Compound	bacterial growth OD600 (polymyxin B 1 µg/mL)	bacterial growth OD600 (polymyxin B 0.75 µg/mL)
CN(CC1CCN(CCc2ccc(F)cc2)CC1)C(=O)/C=C/c1cnn(C)c1	1.04	
COc1ccc(CN2CCN(Cc3cc(F)cc(F)c3)CC2CCO)c(C)c1C (stereo unspecified)	0.898	
Cc1ccc2nc(CNC(=O)Cn3nnnc3CN3CCC(C)CC3)cn2c1		0.872
Cc1cc(CNc2ccc(-c3nc(C4CC4)no3)cn2)no1	0.983	
O=C(Nc1cccc(-n2cccn2)c1)C1CCCN(Cc2cccc(F)c2F)C1 (stereo unspecified)	0.734	
C=CCCC(=O)NCc1cccnc1Oc1c(C)cccc1C	0.894	
O=C(CCC1CCN(C(=O)NC2CCS(=O)(=O)C2)CC1)NCc1ccc(F)cc1 (stereo unspecified)	1.09	
O=C1CCC(C(=O)NCc2cccnc2N2CCc3ccccc3C2)=NN1		0.74
O=C(NCc1nnc2n1CCC2)C1(N2CCCCC2)Cc2ccccc2C1		0.841
COc1ccc(-c2ccc(C(=O)N3CCC(CCC(=O)NC4CC4)CC3)o2)cc1	0.953	
Cc1nnc(CN(C)Cc2cn(Cc3ccccc3)nc2-c2cc3ccccc3o2)o1	0.831	
CCO[C@H]1[C@H](NC(=O)c2cccnc2)c2ccccc2C12CCN(C(=O)c1ocnc1C)CC2		0.952
CCOC(=O)C1(Cc2ccc(OC)cc2)CCN(C(=O)c2ccccc2SC)CC1	0.663	
CCOc1cccc(CN2CCC3(CC2)c2ccccc2[C@@H](NC(=O)CSC)[C@@H]3OC)c1O		0.946
COCCc1nc2ccc(C(=O)NCCc3cnn(-c4ccccc4)c3)cc2o1	0.937	

Seven entries already listed, sorted by number of heavy atoms, rising:
Compound	bacterial growth OD600 (polymyxin B 1 µg/mL)	bacterial growth OD600 (polymyxin B 0.75 µg/mL)
C=CCCC(=O)NCc1cccnc1Oc1c(C)cccc1C	0.894	
O=C(NCc1nnc2n1CCC2)C1(N2CCCCC2)Cc2ccccc2C1		0.841
CN(CC(O)c1ccccc1)C(=O)c1cc(Cn2ccc3ccccc32)[nH]n1 (stereo unspecified)	1.02	
c1cnc2c(CN3CCc4[nH]nc(-c5ccc6c(c5)OCO6)c4C3)cccc2c1		0.853
Cc1nnc(CN(C)Cc2cn(Cc3ccccc3)nc2-c2cc3ccccc3o2)o1	0.831	
O=C1CCC(CCNCc2cc3c(cc2Cl)OCO3)N1CC(c1ccccn1)N1CCOCC1 (stereo unspecified)		0.856
Cc1ccc(OCC(=O)Nc2cccc(-c3nc(CNC(=O)Cc4c(C)noc4C)c(C)o3)c2)cc1		0.777

Source: the supplement of paper PMC12889115
